According to patent US7160900B2, “Tetrahydropyridino or piperidino heterocyclic derivatives” (Taisho Pharmaceutical Co., Ltd., priority 2000, dated 2007):
Some entries share one result that the patent states for a list of compounds.

Biological target: T1, CRF receptor (Rattus norvegicus, UniProt P35353)
T1 sequence (P35353 24-415): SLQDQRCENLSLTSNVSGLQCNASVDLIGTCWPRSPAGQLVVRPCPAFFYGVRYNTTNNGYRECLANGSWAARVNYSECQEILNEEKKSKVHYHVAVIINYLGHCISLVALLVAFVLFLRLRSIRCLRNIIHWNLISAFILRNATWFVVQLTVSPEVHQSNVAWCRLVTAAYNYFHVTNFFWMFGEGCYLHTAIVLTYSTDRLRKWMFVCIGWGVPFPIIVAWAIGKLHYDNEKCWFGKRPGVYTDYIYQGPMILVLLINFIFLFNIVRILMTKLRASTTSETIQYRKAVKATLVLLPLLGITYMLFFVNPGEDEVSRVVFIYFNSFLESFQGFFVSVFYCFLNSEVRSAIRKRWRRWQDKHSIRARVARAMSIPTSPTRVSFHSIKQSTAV
Test: CRF receptor bonding test (125I-CRF)
Conditions: rat frontal cortex membranes or monkey amygdaloid body membranes; 125I-CRF 0.2 nM; 25° C. for 2 hours; read-out: IC50 value (concentration of the test drug at which binding of 125I-CRF is inhibited by 50%)

Row | SMILES | IC50 [nM]
1 | Cc1cc(N2CC=C(C(N)=O)CC2)c2cccc(-c3ccc(OC(F)(F)F)cc3Cl)c2n1 [1-07] | ≤ 500
2 | CCN(c1nc(C)cc(N2CCC(=CC(=O)OC)CC2)n1)c1ccc(C(C)C)cc1SC [16-05] | ≤ 500
3 | CCOC(=O)C=C1CCN(c2cc(C)nc(N(CC)c3ccc(C(C)C)cc3SC)n2)CC1 [16-06] | ≤ 500

Continued, values first:

Row | IC50 [nM] | SMILES
4 | ≤ 500 | Cc1cc(N2CC=C(C(N)=O)CC2)c2cccc(-c3ccc(C(F)(F)F)cc3Cl)c2n1 [1-06]
5 | ≤ 500 | Cc1cc(N2CCC=C(C(N)=O)C2)c2cccc(-c3c(C)cc(C(F)(F)F)cc3C)c2n1 [1-16]
6 | ≤ 500 | CCN(c1nc(C)cc(N2CCC(=CC#N)CC2)n1)c1ccc(C(C)C)cc1SC [16-12]
